According to patent US20230374534A1:
Results are given in words; binding and its absence hold for the method and conditions named. Binding seen in cells or lysates may run through a third protein. Some results given as binding are weak or reduced against the parent protein; the word gives no strength.

Chains of the proteins cited; added tags and fusions are not shown. Lines headed by an entry give the natural chain unless they say otherwise; changes in a name come on top.
UniProt P93835: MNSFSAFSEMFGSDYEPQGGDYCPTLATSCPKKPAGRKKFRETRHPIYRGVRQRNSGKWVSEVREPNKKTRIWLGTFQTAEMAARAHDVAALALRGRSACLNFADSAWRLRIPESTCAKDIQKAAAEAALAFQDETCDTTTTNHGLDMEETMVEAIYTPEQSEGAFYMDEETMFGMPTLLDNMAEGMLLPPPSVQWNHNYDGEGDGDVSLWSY
UniProt Q9SYS6: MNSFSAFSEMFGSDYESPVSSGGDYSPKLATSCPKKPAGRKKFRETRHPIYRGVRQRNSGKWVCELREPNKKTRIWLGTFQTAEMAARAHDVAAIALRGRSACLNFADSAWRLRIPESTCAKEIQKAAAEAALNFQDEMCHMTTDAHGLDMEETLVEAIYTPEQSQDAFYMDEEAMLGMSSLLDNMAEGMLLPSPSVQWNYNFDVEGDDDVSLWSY
UniProt Q9M0L0: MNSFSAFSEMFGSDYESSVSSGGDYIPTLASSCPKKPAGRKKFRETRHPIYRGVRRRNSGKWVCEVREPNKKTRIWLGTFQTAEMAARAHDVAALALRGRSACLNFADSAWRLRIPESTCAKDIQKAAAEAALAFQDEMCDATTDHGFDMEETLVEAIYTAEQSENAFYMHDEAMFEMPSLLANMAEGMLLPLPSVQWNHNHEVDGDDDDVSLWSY

Key:
[1] = target: His-CBF1 (histidine-tagged C-repeat-binding transcription factor 1), recombinant (Arabidopsis thaliana) (UniProt P93835); assay: summary of the pull-down, Co-IP and BiFC assays; no affinity value printed
[2] = target: His-CBF2 (histidine-tagged C-repeat-binding factor 2), recombinant (Arabidopsis thaliana) (UniProt Q9SYS6); assay: as above
[3] = target: His-CBF3 (histidine-tagged C-repeat-binding factor 3), recombinant (Arabidopsis thaliana) (UniProt Q9M0L0); assay: as above
[4] = target: His-CBF1 (histidine-tagged C-repeat-binding transcription factor 1), recombinant (Arabidopsis thaliana) (UniProt P93835); assay: in vitro pull-down, purified recombinant Trx-h2 and His-tagged CBFs, western blot (FIG. 1B)
[5] = target: His-CBF2 (histidine-tagged C-repeat-binding factor 2), recombinant (Arabidopsis thaliana) (UniProt Q9SYS6); assay: as above
[6] = target: His-CBF3 (histidine-tagged C-repeat-binding factor 3), recombinant (Arabidopsis thaliana) (UniProt Q9M0L0); assay: as above
[7] = target: CBF2-Myc (from CBF-Myc^OE Arabidopsis plants) (Arabidopsis thaliana) (UniProt Q9SYS6); assay: Co-IP with anti-Myc agarose from CBF-Myc^OE plants, Trx-h2 detected with anti-Trx-h2 antibody (FIG. 1C)
[8] = target: CBF3-Myc (from CBF-Myc^OE Arabidopsis plants) (Arabidopsis thaliana) (UniProt Q9M0L0); assay: as above

Measured: binding

B1: Thioredoxin h2 (Trx-h2), purified recombinant protein (enzyme)
chain: MGGALSTVFGSGEDATAAGTESEPSRVLKFSSSARWQLHFNEIKESNKLLVVDFSASWCGPCRMIEPAIHAMADKFNDVDFVKLDVDELPDVAKEFNVTAMPTFVLVKRGKEIERIIGAKKDELEKKVSKLRA
binds: [1] | [2] | [3] | [4] | [5] | [6]

B2: Trx-h2, endogenous protein in Arabidopsis plants (enzyme)
chain: GGALSTVFGSGEDATAAGTESEPSRVLKFSSSARWQLHFNEIKESNKLLVVDFSASWCGPCRMIEPAIHAMADKFNDVDFVKLDVDELPDVAKEFNVTAMPTFVLVKRGKEIERIIGAKKDELEKKVSKLRA
modifications: myristoylated at Gly2 at 22 °C; demyristoylated at 4 °C
binds: [7] | [8]
